These results are taken from the supplement of paper PMC12819154, “High-throughput peptide-centric local stability assay extends protein–ligand identification to membrane proteins, tissues and bacteria” (Nature Structural & Molecular Biology, 2025).

Chains of the proteins cited; added tags and fusions are not shown. Lines headed by an entry give the natural chain unless they say otherwise; changes in a name come on top.
UniProt Q7TMK6: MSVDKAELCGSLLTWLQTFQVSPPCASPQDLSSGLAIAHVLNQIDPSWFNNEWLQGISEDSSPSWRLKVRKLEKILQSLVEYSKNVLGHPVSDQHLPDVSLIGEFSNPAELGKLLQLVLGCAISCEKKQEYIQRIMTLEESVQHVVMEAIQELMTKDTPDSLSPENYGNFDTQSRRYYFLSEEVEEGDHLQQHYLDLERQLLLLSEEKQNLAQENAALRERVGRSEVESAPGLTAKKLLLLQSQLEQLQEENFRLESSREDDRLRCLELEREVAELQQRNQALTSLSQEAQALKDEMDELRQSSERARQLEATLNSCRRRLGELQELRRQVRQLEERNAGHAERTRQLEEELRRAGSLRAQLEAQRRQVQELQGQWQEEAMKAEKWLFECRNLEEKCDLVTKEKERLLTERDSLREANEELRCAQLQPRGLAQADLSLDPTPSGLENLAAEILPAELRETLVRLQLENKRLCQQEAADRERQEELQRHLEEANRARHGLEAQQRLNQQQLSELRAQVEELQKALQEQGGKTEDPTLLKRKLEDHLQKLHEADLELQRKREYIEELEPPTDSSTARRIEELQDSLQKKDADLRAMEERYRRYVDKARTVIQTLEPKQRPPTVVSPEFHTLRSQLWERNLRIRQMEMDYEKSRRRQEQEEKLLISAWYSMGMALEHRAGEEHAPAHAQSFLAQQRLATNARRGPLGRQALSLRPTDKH
UniProt Q7TMA2: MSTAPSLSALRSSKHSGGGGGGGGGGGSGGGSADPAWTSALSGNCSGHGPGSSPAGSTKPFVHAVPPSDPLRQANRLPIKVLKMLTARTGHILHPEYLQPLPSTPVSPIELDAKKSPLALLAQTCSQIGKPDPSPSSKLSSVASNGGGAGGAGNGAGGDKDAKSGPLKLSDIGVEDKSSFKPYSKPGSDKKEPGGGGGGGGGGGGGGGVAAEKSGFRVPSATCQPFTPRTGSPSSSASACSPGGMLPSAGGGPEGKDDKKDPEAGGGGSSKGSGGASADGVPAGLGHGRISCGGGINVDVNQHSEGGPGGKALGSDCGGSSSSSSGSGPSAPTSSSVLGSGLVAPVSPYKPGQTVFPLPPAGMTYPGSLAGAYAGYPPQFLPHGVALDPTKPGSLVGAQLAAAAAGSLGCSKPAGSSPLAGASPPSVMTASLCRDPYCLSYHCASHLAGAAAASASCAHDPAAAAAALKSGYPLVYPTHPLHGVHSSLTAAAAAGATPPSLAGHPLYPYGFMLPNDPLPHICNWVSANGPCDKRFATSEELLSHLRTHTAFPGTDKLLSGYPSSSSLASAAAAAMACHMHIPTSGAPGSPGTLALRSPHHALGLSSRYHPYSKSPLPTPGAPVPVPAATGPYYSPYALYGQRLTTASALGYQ
UniProt Q6ZPR1: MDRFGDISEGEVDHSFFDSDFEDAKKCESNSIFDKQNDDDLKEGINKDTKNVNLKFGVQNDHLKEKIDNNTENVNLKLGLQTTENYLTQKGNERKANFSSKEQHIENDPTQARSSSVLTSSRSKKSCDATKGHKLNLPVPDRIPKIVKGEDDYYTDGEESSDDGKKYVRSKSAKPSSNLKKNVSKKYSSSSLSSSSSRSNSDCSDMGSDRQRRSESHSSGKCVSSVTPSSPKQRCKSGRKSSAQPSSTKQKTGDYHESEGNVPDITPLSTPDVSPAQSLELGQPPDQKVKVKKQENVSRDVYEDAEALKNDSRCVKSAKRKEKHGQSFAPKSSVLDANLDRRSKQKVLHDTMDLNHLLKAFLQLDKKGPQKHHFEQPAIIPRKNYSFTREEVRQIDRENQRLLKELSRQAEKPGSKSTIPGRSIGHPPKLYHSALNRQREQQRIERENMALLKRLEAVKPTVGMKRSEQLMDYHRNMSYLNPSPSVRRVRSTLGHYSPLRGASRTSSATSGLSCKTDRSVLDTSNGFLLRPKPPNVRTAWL
UniProt Q80SY4, whole entry: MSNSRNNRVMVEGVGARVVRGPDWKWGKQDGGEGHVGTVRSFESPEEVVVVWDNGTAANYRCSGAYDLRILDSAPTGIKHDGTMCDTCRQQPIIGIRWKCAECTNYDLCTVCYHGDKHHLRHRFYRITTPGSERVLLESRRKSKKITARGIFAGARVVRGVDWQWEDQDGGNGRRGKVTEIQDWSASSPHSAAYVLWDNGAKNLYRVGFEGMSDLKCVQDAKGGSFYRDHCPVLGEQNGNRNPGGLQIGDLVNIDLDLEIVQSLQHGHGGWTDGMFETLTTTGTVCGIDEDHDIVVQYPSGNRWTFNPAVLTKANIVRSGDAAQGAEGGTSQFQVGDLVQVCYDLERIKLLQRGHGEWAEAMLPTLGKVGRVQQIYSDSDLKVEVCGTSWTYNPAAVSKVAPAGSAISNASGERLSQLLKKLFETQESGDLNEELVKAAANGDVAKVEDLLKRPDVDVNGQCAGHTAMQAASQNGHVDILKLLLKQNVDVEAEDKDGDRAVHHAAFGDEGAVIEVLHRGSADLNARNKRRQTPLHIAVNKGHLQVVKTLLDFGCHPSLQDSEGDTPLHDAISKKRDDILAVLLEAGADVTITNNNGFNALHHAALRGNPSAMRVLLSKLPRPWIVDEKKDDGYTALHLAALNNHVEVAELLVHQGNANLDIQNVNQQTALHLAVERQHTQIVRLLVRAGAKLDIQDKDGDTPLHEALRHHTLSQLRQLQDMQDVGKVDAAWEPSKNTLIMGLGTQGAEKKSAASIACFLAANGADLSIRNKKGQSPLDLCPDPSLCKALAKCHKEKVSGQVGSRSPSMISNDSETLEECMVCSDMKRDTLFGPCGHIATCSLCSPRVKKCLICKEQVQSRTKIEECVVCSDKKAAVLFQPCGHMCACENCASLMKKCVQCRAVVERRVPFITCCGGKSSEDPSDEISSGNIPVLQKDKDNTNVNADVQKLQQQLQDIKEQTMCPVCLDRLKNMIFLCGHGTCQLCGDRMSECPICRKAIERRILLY
UniProt Q7TS75: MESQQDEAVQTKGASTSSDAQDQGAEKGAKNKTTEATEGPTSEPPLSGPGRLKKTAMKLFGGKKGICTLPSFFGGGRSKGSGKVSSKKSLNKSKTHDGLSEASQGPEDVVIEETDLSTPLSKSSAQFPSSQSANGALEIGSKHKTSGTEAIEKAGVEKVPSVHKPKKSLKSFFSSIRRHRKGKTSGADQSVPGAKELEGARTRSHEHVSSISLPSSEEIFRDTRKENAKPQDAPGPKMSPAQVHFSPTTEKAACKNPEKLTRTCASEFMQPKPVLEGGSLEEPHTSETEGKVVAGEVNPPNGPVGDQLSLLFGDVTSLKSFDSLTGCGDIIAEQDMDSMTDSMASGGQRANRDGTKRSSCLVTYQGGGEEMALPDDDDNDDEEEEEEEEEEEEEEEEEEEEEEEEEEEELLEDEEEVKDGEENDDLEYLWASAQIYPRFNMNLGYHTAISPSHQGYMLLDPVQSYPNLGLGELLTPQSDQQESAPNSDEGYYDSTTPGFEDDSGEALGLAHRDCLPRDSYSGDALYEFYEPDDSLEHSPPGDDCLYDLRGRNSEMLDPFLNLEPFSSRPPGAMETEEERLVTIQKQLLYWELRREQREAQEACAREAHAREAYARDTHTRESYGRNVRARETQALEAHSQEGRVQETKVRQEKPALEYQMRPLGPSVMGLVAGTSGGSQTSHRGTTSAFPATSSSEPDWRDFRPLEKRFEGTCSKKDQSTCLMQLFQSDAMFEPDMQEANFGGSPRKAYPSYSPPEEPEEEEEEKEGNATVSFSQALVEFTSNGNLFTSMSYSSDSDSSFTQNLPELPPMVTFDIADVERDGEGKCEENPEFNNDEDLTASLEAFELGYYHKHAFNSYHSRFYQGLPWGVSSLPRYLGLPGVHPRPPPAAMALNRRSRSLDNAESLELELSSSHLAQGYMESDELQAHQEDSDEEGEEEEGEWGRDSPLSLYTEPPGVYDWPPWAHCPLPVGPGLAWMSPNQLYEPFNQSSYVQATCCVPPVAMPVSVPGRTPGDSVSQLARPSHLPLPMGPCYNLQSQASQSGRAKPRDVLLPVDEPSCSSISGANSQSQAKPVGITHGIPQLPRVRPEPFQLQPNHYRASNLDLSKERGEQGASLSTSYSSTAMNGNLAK
UniProt Q7TN98: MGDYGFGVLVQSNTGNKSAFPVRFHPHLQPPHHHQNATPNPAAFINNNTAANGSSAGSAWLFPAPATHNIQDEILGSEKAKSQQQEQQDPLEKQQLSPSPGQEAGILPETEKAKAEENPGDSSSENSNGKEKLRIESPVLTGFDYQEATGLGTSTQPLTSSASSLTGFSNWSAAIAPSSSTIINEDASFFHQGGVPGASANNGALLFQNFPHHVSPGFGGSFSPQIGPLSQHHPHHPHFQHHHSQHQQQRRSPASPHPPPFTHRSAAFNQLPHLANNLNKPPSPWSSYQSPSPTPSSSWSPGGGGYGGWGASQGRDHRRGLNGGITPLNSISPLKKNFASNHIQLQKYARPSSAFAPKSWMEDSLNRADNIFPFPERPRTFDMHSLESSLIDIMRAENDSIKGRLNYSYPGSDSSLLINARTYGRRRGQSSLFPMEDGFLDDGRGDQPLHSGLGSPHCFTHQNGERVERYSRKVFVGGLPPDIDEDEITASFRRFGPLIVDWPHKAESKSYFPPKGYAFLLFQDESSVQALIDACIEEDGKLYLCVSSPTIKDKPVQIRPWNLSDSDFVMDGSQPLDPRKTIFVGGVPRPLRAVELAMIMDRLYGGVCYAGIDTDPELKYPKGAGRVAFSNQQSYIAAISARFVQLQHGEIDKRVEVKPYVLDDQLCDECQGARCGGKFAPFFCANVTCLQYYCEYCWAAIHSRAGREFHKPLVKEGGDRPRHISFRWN
UniProt Q7TMK9: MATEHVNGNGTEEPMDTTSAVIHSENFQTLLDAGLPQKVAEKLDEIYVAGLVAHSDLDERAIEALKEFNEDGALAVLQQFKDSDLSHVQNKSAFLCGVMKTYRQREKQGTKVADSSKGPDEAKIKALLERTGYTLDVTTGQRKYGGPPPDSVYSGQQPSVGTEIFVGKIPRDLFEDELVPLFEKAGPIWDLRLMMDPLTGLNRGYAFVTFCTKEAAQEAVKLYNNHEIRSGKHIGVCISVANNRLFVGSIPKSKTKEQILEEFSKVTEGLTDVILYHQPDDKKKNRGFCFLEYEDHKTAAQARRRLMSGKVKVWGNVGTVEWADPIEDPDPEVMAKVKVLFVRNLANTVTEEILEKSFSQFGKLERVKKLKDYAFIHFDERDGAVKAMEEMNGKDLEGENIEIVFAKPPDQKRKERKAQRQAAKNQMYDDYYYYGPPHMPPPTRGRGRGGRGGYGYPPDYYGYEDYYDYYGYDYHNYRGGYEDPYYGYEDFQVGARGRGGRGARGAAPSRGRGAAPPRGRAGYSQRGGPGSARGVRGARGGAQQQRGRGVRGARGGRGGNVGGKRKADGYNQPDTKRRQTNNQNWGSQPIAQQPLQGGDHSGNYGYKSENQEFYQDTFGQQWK
UniProt Q80U38: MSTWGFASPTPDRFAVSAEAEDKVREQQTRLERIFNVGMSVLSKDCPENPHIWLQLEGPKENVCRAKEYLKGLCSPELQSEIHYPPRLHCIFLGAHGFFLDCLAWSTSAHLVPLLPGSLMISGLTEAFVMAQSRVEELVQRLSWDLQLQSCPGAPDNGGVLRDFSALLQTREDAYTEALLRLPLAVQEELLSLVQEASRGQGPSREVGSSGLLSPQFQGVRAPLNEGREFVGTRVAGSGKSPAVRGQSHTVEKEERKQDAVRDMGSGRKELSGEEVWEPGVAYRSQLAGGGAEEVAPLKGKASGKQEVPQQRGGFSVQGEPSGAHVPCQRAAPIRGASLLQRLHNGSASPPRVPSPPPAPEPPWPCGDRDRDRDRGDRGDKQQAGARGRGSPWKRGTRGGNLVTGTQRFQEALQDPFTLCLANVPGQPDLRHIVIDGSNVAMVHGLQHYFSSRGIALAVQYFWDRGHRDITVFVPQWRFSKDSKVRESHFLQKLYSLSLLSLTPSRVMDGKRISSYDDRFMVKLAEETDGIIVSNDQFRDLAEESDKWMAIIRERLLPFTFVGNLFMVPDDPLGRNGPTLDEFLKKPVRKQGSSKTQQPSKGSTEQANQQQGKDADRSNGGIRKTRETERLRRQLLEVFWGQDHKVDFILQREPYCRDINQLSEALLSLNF
UniProt Q6ZQE4: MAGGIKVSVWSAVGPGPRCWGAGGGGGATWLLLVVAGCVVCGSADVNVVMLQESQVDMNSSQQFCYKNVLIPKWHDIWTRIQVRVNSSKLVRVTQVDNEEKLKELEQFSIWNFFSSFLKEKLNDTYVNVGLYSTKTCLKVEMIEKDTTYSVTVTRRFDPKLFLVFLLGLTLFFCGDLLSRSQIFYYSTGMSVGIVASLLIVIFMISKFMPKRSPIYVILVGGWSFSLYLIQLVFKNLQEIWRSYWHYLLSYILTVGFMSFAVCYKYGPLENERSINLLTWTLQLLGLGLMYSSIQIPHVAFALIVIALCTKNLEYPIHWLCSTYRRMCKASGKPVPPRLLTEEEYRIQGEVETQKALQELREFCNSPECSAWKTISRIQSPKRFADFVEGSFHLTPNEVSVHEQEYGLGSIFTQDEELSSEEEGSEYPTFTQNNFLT

This is one part of the list. Small differences around the control level are noise.

Compound in the test: CN[C@@H]1C[C@H]2O[C@@](C)([C@@H]1OC)n1c3ccccc3c3c4c(c5c6ccccc6n2c5c31)C(=O)NC4 [staurosporine]
Kind of test: log2 fold change of tryptic peptide abundance, ligand vs vehicle (limited proteolysis) (log2 ratio); higher = more trypsin-susceptible (destabilized). The following applies: ligand concentration: 20 uM; sample: mouse liver crude lysate; replicate design: treated separately.
Turning to “UniProt Q7TMK6 (peptide sequence: EANEELR, peptide start residue: 416)”, the log2 fold change is -0.37. Turning to “UniProt Q70FJ1 (peptide sequence: NLGPDTDHAALQK, peptide start residue: 3578)”, the log2 fold change was -0.816.

On to “UniProt Q7TMA2 (peptide sequence: SPHHALGLSSR, peptide start residue: 597)”, for which the log2 fold change was -0.214. On to “UniProt Q6ZPR1 (peptide sequence: VLHDTMDLNHLLK, peptide start residue: 347)”, for which the log2 fold change turned out to be 0.419.

As to “UniProt Q80SY4 (peptide sequence: HHTLSQLR, peptide start residue: 709)”, the log2 fold change was 0.287. Consider “UniProt Q7TS75 (peptide sequence: TSGADQSVPGAK, peptide start residue: 184)”, for which the log2 fold change was -0.272. Consider “UniProt Q7TN98 (peptide sequence: TIFVGGVPRPLR, peptide start residue: 581)”, for which the log2 fold change was -0.445. With “UniProt Q7TMK9 (peptide sequence: VTEGLTDVILYHQPDDK, peptide start residue: 266)”, the log2 fold change came to 0.108. Regarding “UniProt Q7TS68 (peptide sequence: VFLGNGISELSR, peptide start residue: 170)”, the log2 fold change stood at 0.308. As to “UniProt Q80U38 (peptide sequence: ESHFLQK, peptide start residue: 487)”, the log2 fold change is -0.31. Turning to “UniProt Q6ZQE4 (peptide sequence: IQGEVETQK, peptide start residue: 347)”, the log2 fold change is -0.407.
